{
  "sequences": {"note": "Sequences of proteins named here, by UniProt entry; tags and fusion partners are left off.", "UniProt P50406, whole entry": "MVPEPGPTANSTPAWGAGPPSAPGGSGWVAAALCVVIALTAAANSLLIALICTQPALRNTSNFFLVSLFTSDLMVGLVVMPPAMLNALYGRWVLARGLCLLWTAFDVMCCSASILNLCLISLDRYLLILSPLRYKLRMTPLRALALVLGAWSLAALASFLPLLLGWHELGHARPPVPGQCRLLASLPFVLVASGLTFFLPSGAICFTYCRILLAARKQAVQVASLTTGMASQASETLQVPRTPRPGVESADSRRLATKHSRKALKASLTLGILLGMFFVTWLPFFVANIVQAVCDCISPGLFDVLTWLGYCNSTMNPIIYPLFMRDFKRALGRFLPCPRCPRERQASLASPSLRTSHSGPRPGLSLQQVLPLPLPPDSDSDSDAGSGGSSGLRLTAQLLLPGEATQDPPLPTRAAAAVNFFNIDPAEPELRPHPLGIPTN"},
  "source": "patent US7439243B2",
  "about": "“Piperazinyl-quinoline derivatives useful for the treatment of CNS disorders” (Glaxo Group Limited, priority 2003, dated 2008)",
  "molecular_target": "human cloned 5-HT6 receptors (Homo sapiens, UniProt P50406)",
  "test": "5-HT6 receptor affinity (procedures outlined in WO98/27081)",
  "format": "binding",
  "source_text": "Compounds can be tested following the procedures outlined in WO98/27081.",
  "note": "Some entries share one result that the patent states for a list of compounds.",
  "data": [
    {"smiles": "Cl.O=C(c1cccc(Cl)c1)c1cnc2c(N3CCNCC3)cccc2c1", "note": "[Example E2, (3-Chlorophenyl)[8-(1-piperazinyl)-3-quinolinyl]methanone hydrochloride]", "values": [
      {"measurement": "pKi", "result": "> 6.0"}
    ]}
  ]
}
